Values quoted from earlier work, collected in patent US20180338899A1, “INHIBITORS FOR METHYLATION-RELATED ENZYMES HAT1 AND KAT8” (priority 2015, published 2018).

Details: interview form of commercially available medicine; cited from earlier work

C[N+]1(C)CCC(OC(=O)C(O)(c2ccccc2)C2CCCC2)C1 (stereo not shown) [glycopyrrolate]
maximum effective blood concentration (Cmax): 40 ng/mL
